Read-outs that look alike come from different tables or passages of the source. Results are given in words; binding and its absence hold for the method and conditions named. Binding calls can cover weak binding; strength is not graded here.
Assays:
[1] = biological target: FGF2 (wild type) (UniProt P09038); experiment: ELISA
[2] = biological target: FGF2 (wild type) (UniProt P09038); experiment: ELISA; remark: listed apart in the source

By UniProt entry, the sequences of proteins in these tests, tags left out. Where a name states a change or a piece, a line headed by the entry shows the natural chain unless it says otherwise.
UniProt P09038: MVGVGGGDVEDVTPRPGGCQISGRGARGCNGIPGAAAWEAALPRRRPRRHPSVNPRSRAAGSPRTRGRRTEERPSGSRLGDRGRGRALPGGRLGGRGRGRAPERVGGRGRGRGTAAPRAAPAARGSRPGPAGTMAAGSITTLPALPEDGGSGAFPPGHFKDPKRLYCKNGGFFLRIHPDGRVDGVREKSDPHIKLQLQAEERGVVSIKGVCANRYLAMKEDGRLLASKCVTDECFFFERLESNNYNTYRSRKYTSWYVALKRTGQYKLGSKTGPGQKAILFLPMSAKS
UniProt P08514: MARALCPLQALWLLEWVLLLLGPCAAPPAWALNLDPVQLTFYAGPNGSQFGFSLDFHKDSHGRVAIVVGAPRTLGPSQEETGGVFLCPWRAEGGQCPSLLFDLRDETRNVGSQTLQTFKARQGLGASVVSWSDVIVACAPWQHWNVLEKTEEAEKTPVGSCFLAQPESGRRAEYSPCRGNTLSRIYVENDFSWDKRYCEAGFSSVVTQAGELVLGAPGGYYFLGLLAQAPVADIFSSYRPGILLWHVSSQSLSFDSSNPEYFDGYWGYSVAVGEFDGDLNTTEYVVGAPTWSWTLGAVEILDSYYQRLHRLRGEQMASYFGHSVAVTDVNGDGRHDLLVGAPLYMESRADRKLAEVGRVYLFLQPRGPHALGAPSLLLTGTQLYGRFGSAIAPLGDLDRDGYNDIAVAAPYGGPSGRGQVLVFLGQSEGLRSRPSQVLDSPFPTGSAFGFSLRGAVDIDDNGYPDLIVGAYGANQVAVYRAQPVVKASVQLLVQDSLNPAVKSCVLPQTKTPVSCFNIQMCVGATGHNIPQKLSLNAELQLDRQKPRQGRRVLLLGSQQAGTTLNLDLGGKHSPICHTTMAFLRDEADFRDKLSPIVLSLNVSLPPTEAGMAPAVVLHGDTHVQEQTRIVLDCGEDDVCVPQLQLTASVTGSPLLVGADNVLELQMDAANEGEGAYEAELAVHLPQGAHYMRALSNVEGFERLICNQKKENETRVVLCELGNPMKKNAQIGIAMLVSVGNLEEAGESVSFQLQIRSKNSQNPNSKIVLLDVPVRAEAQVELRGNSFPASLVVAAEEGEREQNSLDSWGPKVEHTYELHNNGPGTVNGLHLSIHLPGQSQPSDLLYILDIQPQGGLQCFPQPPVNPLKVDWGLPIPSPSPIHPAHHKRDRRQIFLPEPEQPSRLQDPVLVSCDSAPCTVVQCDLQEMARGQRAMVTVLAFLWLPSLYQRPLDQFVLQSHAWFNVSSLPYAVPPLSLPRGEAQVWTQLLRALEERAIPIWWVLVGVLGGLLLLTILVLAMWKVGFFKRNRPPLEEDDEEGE

soluble recombinant integrin αIIbβ3 (ectodomain) (from UniProt P08514 32-993; P05106 27-718) (receptor)
binding [1]: binds
binding [2]: binds

From publication doi:10.1101/2024.04.17.589979
